This assay has as its target T1, Protocadherin 18 (human (endogenous in NCM460)) (UniProt Q9HCL0).
T1 sequence: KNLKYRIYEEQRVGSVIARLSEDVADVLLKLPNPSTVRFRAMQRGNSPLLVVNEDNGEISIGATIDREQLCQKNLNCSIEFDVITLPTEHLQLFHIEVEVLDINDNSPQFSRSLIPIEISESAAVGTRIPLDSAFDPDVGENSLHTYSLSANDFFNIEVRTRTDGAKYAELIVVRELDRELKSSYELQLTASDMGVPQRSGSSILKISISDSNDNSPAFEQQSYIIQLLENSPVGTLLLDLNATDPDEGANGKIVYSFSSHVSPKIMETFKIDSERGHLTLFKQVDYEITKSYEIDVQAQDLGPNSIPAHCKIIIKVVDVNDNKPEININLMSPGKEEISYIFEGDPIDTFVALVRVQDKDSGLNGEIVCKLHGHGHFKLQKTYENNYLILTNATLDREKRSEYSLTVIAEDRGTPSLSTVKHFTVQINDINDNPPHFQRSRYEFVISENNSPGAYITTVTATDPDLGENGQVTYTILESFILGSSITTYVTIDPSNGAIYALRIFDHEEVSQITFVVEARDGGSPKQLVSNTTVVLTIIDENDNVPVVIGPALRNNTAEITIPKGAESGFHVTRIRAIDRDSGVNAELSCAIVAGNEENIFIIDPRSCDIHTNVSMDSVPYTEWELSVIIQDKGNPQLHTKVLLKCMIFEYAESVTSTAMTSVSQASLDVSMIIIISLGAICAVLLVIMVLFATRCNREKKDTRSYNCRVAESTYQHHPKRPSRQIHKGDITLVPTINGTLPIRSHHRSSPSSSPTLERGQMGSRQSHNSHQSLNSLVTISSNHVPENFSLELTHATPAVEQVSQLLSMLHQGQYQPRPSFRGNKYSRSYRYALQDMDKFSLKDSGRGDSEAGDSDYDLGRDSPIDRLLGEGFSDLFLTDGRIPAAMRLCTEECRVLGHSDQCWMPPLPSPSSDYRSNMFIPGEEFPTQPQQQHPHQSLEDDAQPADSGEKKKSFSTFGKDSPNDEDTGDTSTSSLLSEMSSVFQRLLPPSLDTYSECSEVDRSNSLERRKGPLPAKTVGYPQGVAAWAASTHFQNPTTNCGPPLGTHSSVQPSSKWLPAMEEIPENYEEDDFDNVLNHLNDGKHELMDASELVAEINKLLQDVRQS
The experiment in a line: co-IP; anti-PCDH18 (2 μg) with RIPA lysates (1.0–1.5 mg protein/ml) of NCM460 cells transfected with siNC or siPCDH18, 4 °C overnight; protein G Agarose 1 h at 4 °C; immunoblot for β-catenin and PCDH18. Background: In western blotting, separated proteins are transferred to a membrane and probed.

Chains of the proteins cited; added tags and fusions are not shown.
UniProt P35222: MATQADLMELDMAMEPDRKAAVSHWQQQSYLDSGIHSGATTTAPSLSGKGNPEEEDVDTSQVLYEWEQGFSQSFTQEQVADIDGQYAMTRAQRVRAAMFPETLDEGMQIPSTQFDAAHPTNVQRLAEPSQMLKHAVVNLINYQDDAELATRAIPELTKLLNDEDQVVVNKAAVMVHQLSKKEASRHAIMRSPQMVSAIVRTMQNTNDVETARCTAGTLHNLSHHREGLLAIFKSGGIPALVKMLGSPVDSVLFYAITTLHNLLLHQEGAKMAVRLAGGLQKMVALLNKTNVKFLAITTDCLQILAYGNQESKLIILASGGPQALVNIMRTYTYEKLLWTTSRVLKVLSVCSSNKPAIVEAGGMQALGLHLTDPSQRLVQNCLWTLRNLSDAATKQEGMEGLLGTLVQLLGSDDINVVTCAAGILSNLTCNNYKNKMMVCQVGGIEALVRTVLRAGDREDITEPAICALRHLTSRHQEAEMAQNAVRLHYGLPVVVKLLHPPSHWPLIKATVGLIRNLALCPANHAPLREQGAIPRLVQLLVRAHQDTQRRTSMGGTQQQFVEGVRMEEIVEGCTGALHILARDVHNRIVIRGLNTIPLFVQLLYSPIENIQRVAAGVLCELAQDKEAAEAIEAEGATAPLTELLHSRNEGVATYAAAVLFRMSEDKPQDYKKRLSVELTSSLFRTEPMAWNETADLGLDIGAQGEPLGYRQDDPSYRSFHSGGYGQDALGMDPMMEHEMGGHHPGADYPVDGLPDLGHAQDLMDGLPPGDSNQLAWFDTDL

This is an account of results in article PMC5460281.

Results are given in words; binding and its absence hold for the method and conditions named. Binding seen in cells or lysates may run through a third protein. Some results given as binding are weak or reduced against the parent protein; the word gives no strength.

For β-catenin (from UniProt P35222 1-781), the binding result was “binds weakly”.
